PubChem BioAssay AID1259308 – NCATS – 2017
Assay: 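Genes whose loss raises luciferase production in HEK293 cells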 (primary screen). System: human HEK293 embryonic kidney cells stably expressing firefly luciferase (HEK-CMV-Luc2-Hygro). Reagents: single siRNA against human genes, 0.8 pmol siRNA per well. Timing: 72 h. Read-out: 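Reporter luminescence and viable-cell signal on separate replicate plates, given as percent of non-targeting control and median/MAD z-scores, plus per-cell luciferase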. Scale: total luciferase, z-score: higher = more reporter protein produced. Active means: 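Active when the median/MAD z-score for overall luciferase is greater than 3; a gene was taken forward for validation with new siRNAs if at least two of its three siRNAs passed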. Meaning of the calls: active = raised luciferase; inactive = no rise.
Shown is one part, drawn at random, of about 59,000 reagents. About 1,510 of all reagents (2.6%) count as active. 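Calls use total luciferase alone and ignore viability, so some active siRNAs may act by altering cell number.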 Unmarked entries are inactive. The numbers tell different reagents against one gene apart. Not all columns of the deposit are shown. Reagent sequences are not shown.

After knock-down of OR2H1 #1, the screen gave total luciferase, z-score -0.039. OR2H1 #2 gave total luciferase, z-score 0.136. Knock-down of OR2H1 #3 resulted in: total luciferase, z-score -0.386. After knock-down of RPSAP22 #1, the screen gave total luciferase, z-score -0.0744. RPSAP22 #2 gave total luciferase, z-score 0.0137. Against RPSAP22 #3, the values are total luciferase, z-score -0.232.

Part of the list above, set out differently.
target,reagent,"total luciferase, z-score"
OR2H1,1,-0.039
OR2H1,2,0.136

Additional records follow:
Against MRPL2 #1, the values are total luciferase, z-score -0.418. After knock-down of MRPL2 #2 the results were total luciferase, z-score -0.794. Silencing of MRPL2 #3 came out at: total luciferase, z-score -0.541. ZNF790 #1 gave total luciferase, z-score -1.45. For ZNF790 #2 the deposit lists total luciferase, z-score -0.667. For ZNF790 #3, the entry reads total luciferase, z-score -0.839.
